These are yes or no findings as the source states them, for the method shown. Binding seen in cells or lysates may run through a third protein. A result given as binding can be weak or reduced; the word gives no strength. For part of these data: Sequences can lack the tags named with a protein.
What was measured:
[1] = target: His-PLK1 (UniProt Q62673); test: co-IP; NP cells co-transfected with His-PLK1 and Flag-TRIM63 (FL or deletion mutants); IP with anti-His antibody (also anti-Flag in Figures 7J-K, 8E-F), western blot; also with shPTEN or shACE (interaction enhanced)
[2] = target: T1, Myc-ACE full-length (UniProt P47820); test: co-IP; NP cells co-transfected with Myc-ACE (FL or deletion mutants) and Flag-TRIM63 (FL or deletion mutants); IP with anti-Myc or anti-Flag antibody, western blot; also with shPTEN (interaction promoted)
T1 sequence: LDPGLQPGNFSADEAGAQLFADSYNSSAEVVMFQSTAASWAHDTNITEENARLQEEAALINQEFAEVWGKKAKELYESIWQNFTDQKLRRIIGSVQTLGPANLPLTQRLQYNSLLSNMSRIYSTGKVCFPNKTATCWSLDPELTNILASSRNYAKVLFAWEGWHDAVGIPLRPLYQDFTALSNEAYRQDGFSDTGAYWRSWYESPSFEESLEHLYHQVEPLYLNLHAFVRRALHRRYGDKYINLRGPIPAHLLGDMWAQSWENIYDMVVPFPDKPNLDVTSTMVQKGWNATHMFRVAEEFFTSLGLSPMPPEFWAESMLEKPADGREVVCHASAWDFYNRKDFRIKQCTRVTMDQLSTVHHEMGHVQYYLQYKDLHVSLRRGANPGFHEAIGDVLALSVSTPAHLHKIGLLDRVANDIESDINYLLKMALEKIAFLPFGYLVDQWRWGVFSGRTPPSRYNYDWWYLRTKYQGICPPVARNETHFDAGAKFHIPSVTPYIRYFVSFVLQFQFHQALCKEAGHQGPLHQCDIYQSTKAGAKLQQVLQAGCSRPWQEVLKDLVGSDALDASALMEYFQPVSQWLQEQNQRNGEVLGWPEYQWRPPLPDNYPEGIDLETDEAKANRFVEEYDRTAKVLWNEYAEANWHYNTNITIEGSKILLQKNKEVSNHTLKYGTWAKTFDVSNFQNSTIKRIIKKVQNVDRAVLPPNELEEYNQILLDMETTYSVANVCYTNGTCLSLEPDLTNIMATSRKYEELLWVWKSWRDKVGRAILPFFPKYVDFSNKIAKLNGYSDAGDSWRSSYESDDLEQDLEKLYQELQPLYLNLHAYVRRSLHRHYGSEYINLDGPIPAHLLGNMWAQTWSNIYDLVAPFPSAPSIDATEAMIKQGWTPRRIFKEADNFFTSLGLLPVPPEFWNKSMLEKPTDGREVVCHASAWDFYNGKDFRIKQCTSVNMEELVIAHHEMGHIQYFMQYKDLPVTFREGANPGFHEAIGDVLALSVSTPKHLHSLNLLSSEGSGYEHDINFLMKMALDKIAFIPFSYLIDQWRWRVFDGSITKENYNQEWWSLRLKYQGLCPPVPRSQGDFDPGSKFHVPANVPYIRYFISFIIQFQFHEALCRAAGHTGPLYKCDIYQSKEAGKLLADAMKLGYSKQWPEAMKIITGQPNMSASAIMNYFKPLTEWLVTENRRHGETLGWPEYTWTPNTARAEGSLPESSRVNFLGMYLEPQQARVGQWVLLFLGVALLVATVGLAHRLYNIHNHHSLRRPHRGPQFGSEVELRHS

Amino acid sequences for entries named in this document (tags omitted). A change or cut given only in a name is not applied to a line headed by its entry.
UniProt Q62673: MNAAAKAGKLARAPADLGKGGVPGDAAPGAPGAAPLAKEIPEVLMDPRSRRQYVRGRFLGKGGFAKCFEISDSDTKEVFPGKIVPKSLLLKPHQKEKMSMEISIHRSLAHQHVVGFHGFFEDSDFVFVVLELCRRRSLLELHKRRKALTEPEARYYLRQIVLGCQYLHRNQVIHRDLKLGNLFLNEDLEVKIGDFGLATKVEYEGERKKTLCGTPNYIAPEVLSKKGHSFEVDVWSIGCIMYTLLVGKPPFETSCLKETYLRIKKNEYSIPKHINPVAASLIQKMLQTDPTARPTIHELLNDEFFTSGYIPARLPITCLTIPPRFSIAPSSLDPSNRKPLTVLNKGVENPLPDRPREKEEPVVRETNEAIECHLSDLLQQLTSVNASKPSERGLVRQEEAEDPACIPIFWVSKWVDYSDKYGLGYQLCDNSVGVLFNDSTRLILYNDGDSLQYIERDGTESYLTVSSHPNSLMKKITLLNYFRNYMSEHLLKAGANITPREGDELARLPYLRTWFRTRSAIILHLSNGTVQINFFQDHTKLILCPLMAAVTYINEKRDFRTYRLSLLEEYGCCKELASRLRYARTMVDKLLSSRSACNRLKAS
UniProt Q91Z63: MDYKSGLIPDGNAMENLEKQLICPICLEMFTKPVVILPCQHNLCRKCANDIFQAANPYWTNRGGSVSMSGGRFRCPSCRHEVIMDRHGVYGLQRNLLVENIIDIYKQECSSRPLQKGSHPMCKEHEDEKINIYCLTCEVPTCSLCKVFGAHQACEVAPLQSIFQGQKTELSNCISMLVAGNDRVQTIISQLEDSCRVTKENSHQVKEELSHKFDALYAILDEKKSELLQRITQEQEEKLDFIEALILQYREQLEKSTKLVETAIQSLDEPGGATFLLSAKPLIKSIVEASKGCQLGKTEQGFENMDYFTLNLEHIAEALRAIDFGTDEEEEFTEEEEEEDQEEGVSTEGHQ

[3] = target: Flag-TRIM63 full-length (UniProt Q91Z63); test: as above

binding [1] | binding [2] | binding [3] | Substance
no binding | no binding |  | Flag-TRIM63 ΔB (from UniProt Q91Z63) (domain or fragment)
no binding | no binding |  | Flag-TRIM63 ΔC (from UniProt Q91Z63) (domain or fragment)
binds | binds |  | Flag-TRIM63 ΔR (from UniProt Q91Z63) (domain or fragment)
 |  | binds | Myc-ACE ΔM1 (from UniProt P47820) (domain or fragment)
 |  | no binding | Myc-ACE ΔM2 (from UniProt P47820) (domain or fragment)
 |  | no binding | Myc-ACE ΔM3 (from UniProt P47820) (domain or fragment)
